Measurements from patent US20200377561A1, “ANTIMICROBIAL PEPTIDES AND METHODS OF TREATING GRAM-NEGATIVE PATHOGEN INFECTIONS: POLAR AND NON-POLAR FACE ANALOGS” (THE REGENTS OF THE UNIVERSITY OF COLORADO, a body corporate, priority 2017, published 2020).
Peptide text beside a SMILES is read from it.

Tested on: Human erythrocytes
Assay: Haemolysis assay using human blood
Type: cell-based
Conditions: therapeutic index, HC50 over A. baumannii NCTC13420 MIC
Procedure: To determine the extent of haemolytic activity (the ability to lyse red blood cells) in test peptides, a haemolysis assay was conducted using human blood (BioIVT, West Sussex, UK). Human erythrocytes were exposed to a single fixed concentration or a range of concentrations as to determine the % haemolysis (fixed concentration) or the concentration at which 50% haemolysis occurred (HC50), respectively. Prior to the assay, whole human blood was repeatedly washed in phosphate buffered saline (PBS) under cooled conditions to remove the buffy coat, plasma and cell debris. Washed erythrocytes were diluted as to achieve 1×10^8 cells/mL in PBS. Prepared human erythrocyte samples were combined with peptide at a single fixed concentration of 128 μg/mL, or a range of concentrations (two-fold dilution series) from 1000-31.25 μg/mL. Positive and negative controls containing 2% (v/v) Triton X-100 and PBS alone, respectively, were also prepared. Samples were incubated at 37° C. for 1 hour and then centrifuged to collect intact erythrocytes. Haemoglobin release was determined by recording the optical density of the supernatant at 540 nm. Optical density values were transformed to a percentage of the positive control. Results were recorded as a percentage haemolysis at 128 μg/mL, or by plotting the percentage haemolysis versus concentration and extrapolating the HC50 using linear regression analysis (Table 2 above)
The therapeutic index is a widely-accepted parameter to represent the specificity of antimicrobial peptides for prokaryotic versus eukaryotic cells. It is calculated by the ratio of hemolytic activity and antimicrobial activity (MIC) (Table 2 above); thus, larger values of therapeutic index indicate greater specificity for prokaryotic cells. With the peptides used in this study the inventors used the HC50/MIC ratio value to calculate the therapeutic index.

SMILES	HC50/A.b MIC selectivity ratio
CC(=O)N[C@H](CCCCN)C(=O)N[C@H](CC(C)C)C(=O)N[C@H](CCCCN)C(=O)N[C@H](CCCCN)C(=O)N[C@H](CC(C)C)C(=O)N[C@H](CC(C)C)C(=O)N[C@H](CCCCN)C(=O)N[C@H](CCCCN)C(=O)N[C@H](CC(C)C)C(=O)N[C@H](CO)C(=O)N[C@H](CO)C(=O)N[C@H](C)C(=O)N[C@H](CN)C(=O)N[C@H](CO)C(=O)N[C@H](CO)C(=O)N[C@H](CN)C(=O)N[C@H](CC(C)C)C(=O)N[C@H](CO)C(=O)N[C@@H](C(=O)N[C@H](CC(C)C)C(=O)N[C@H](CC(C)C)C(=O)N[C@H](CCCCN)C(=O)N[C@H](CCCCN)C(=O)N[C@H](CC(C)C)C(=O)N[C@H](CCCCN)C(=O)N[C@H](CCCCN)C(N)=O)[C@H](C)O [compound 16] (HELM PEPTIDE1{[ac].[dK].[dL].[dK].[dK].[dL].[dL].[dK].[dK].[dL].[dS].[dS].[dA].[NC[C@@H](N[*:1])C(=O)[*:2]].[dS].[dS].[NC[C@@H](N[*:1])C(=O)[*:2]].[dL].[dS].[dT].[dL].[dL].[dK].[dK].[dL].[dK].[dK].[am]}$$$$V2.0)	>500
CC(=O)N[C@H](C)C(=O)N[C@H](CC(C)C)C(=O)N[C@H](CCCCN)C(=O)N[C@H](CCCCN)C(=O)N[C@H](CC(C)C)C(=O)N[C@H](CC(C)C)C(=O)N[C@H](CCCCN)C(=O)N[C@H](CCCCN)C(=O)N[C@H](CC(C)C)C(=O)N[C@H](CO)C(=O)N[C@H](CO)C(=O)N[C@H](C)C(=O)N[C@H](CCCN)C(=O)N[C@H](CO)C(=O)N[C@H](CO)C(=O)N[C@H](CCCN)C(=O)N[C@H](CC(C)C)C(=O)N[C@H](CO)C(=O)N[C@@H](C(=O)N[C@H](CC(C)C)C(=O)N[C@H](CC(C)C)C(=O)N[C@H](CCCCN)C(=O)N[C@H](CCCCN)C(=O)N[C@H](CC(C)C)C(=O)N[C@H](CCCCN)C(=O)N[C@H](CCCCN)C(N)=O)[C@H](C)O [compound 19] (HELM PEPTIDE1{[ac].[dA].[dL].[dK].[dK].[dL].[dL].[dK].[dK].[dL].[dS].[dS].[dA].[NCCC[C@@H](N[*:1])C(=O)[*:2]].[dS].[dS].[NCCC[C@@H](N[*:1])C(=O)[*:2]].[dL].[dS].[dT].[dL].[dL].[dK].[dK].[dL].[dK].[dK].[am]}$$$$V2.0)	>500
CC(=O)N[C@H](C)C(=O)N[C@H](CC(C)C)C(=O)N[C@H](CCCCN)C(=O)N[C@H](CCCCN)C(=O)N[C@H](CC(C)C)C(=O)N[C@H](CC(C)C)C(=O)N[C@H](CCCCN)C(=O)N[C@H](CCCCN)C(=O)N[C@H](CC(C)C)C(=O)N[C@H](CO)C(=O)N[C@H](CO)C(=O)N[C@H](C)C(=O)N[C@H](CCN)C(=O)N[C@H](CO)C(=O)N[C@H](CO)C(=O)N[C@H](CCN)C(=O)N[C@H](CC(C)C)C(=O)N[C@H](CO)C(=O)N[C@@H](C(=O)N[C@H](CC(C)C)C(=O)N[C@H](CC(C)C)C(=O)N[C@H](CCCCN)C(=O)N[C@H](CCCCN)C(=O)N[C@H](CC(C)C)C(=O)N[C@H](CCCCN)C(=O)N[C@H](CCCCN)C(N)=O)[C@H](C)O [compound 20] (HELM PEPTIDE1{[ac].[dA].[dL].[dK].[dK].[dL].[dL].[dK].[dK].[dL].[dS].[dS].[dA].[NCC[C@@H](N[*:1])C(=O)[*:2]].[dS].[dS].[NCC[C@@H](N[*:1])C(=O)[*:2]].[dL].[dS].[dT].[dL].[dL].[dK].[dK].[dL].[dK].[dK].[am]}$$$$V2.0)	>500
CC(=O)N[C@H](C)C(=O)N[C@H](CC(C)C)C(=O)N[C@H](CCCCN)C(=O)N[C@H](CCCCN)C(=O)N[C@H](CC(C)C)C(=O)N[C@H](CC(C)C)C(=O)N[C@H](CCCCN)C(=O)N[C@H](CCCCN)C(=O)N[C@H](CC(C)C)C(=O)N[C@H](CO)C(=O)N[C@H](CO)C(=O)N[C@H](C)C(=O)N[C@H](CN)C(=O)N[C@H](CO)C(=O)N[C@H](CO)C(=O)N[C@H](CN)C(=O)N[C@H](CC(C)C)C(=O)N[C@H](CO)C(=O)N[C@@H](C(=O)N[C@H](CC(C)C)C(=O)N[C@H](CC(C)C)C(=O)N[C@H](CCCCN)C(=O)N[C@H](CCCCN)C(=O)N[C@H](CC(C)C)C(=O)N[C@H](CCCCN)C(=O)N[C@H](CCCCN)C(N)=O)[C@H](C)O [compound 21] (HELM PEPTIDE1{[ac].[dA].[dL].[dK].[dK].[dL].[dL].[dK].[dK].[dL].[dS].[dS].[dA].[NC[C@@H](N[*:1])C(=O)[*:2]].[dS].[dS].[NC[C@@H](N[*:1])C(=O)[*:2]].[dL].[dS].[dT].[dL].[dL].[dK].[dK].[dL].[dK].[dK].[am]}$$$$V2.0)	>500
CC(=O)N[C@H](C)C(=O)N[C@H](CC(C)C)C(=O)N[C@H](CCCCN)C(=O)N[C@H](CO)C(=O)N[C@H](CC(C)C)C(=O)N[C@H](CC(C)C)C(=O)N[C@H](CCCCN)C(=O)N[C@H](CCCCN)C(=O)N[C@H](CC(C)C)C(=O)N[C@H](CO)C(=O)N[C@H](CCCCN)C(=O)N[C@H](C)C(=O)N[C@H](CCCCN)C(=O)N[C@H](CCCCN)C(=O)N[C@H](CCCCN)C(=O)N[C@H](CCCCN)C(=O)N[C@H](CC(C)C)C(=O)N[C@H](CCCCN)C(=O)N[C@H](CCCCN)C(=O)N[C@H](CC(C)C)C(=O)N[C@H](CC(C)C)C(=O)N[C@H](CCCCN)C(=O)N[C@H](C)C(=O)N[C@H](CC(C)C)C(=O)N[C@H](CO)C(=O)N[C@H](CO)C(N)=O [compound 23] (HELM PEPTIDE1{[ac].[dA].[dL].[dK].[dS].[dL].[dL].[dK].[dK].[dL].[dS].[dK].[dA].[dK].[dK].[dK].[dK].[dL].[dK].[dK].[dL].[dL].[dK].[dA].[dL].[dS].[dS].[am]}$$$$V2.0)	87.5
CC(=O)N[C@H](CCCCN)C(=O)N[C@H](CC(C)C)C(=O)N[C@H](CCCCN)C(=O)N[C@H](CCCCN)C(=O)N[C@H](CC(C)C)C(=O)N[C@H](CC(C)C)C(=O)N[C@H](CCCCN)C(=O)N[C@H](CCCCN)C(=O)N[C@H](CC(C)C)C(=O)N[C@H](CO)C(=O)N[C@H](CO)C(=O)N[C@H](C)C(=O)N[C@H](CCCCN)C(=O)N[C@H](CO)C(=O)N[C@H](CO)C(=O)N[C@H](CCCCN)C(=O)N[C@H](CC(C)C)C(=O)N[C@H](CO)C(=O)N[C@H](CO)C(=O)N[C@H](CC(C)C)C(=O)N[C@H](CC(C)C)C(=O)N[C@H](CCCCN)C(=O)N[C@H](CCCCN)C(=O)N[C@H](CC(C)C)C(=O)N[C@H](CCCCN)C(=O)N[C@H](CCCCN)C(N)=O [compound 24] (HELM PEPTIDE1{[ac].[dK].[dL].[dK].[dK].[dL].[dL].[dK].[dK].[dL].[dS].[dS].[dA].[dK].[dS].[dS].[dK].[dL].[dS].[dS].[dL].[dL].[dK].[dK].[dL].[dK].[dK].[am]}$$$$V2.0)	>1000
CC(=O)N[C@H](C)C(=O)N[C@H](CC(C)C)C(=O)N[C@H](CCCCN)C(=O)N[C@H](CCCCN)C(=O)N[C@H](CC(C)C)C(=O)N[C@H](CC(C)C)C(=O)N[C@H](CCCCN)C(=O)N[C@H](CCCCN)C(=O)N[C@H](CC(C)C)C(=O)N[C@H](CO)C(=O)N[C@H](CO)C(=O)N[C@H](C)C(=O)N[C@H](CCCCN)C(=O)N[C@H](CO)C(=O)N[C@H](CO)C(=O)N[C@H](CCCCN)C(=O)N[C@H](CC(C)C)C(=O)N[C@H](CO)C(=O)N[C@H](CO)C(=O)N[C@H](CC(C)C)C(=O)N[C@H](CC(C)C)C(=O)N[C@H](CCCCN)C(=O)N[C@H](CCCCN)C(=O)N[C@H](CC(C)C)C(=O)N[C@H](CCCCN)C(=O)N[C@H](CCCCN)C(N)=O [compound 25] (HELM PEPTIDE1{[ac].[dA].[dL].[dK].[dK].[dL].[dL].[dK].[dK].[dL].[dS].[dS].[dA].[dK].[dS].[dS].[dK].[dL].[dS].[dS].[dL].[dL].[dK].[dK].[dL].[dK].[dK].[am]}$$$$V2.0)	>1000
CC(=O)N[C@H](CCCCN)C(=O)N[C@H](CC(C)C)C(=O)N[C@H](CCCCN)C(=O)N[C@H](CO)C(=O)N[C@H](CC(C)C)C(=O)N[C@H](CC(C)C)C(=O)N[C@H](CCCCN)C(=O)N[C@H](CO)C(=O)N[C@H](CC(C)C)C(=O)N[C@H](CO)C(=O)N[C@H](CCCCN)C(=O)N[C@H](C)C(=O)N[C@H](CCCCN)C(=O)N[C@H](CCCCN)C(=O)N[C@H](CCCCN)C(=O)N[C@H](CCCCN)C(=O)N[C@H](CC(C)C)C(=O)N[C@H](CCCCN)C(=O)N[C@H](CO)C(=O)N[C@H](CC(C)C)C(=O)N[C@H](CC(C)C)C(=O)N[C@H](CCCCN)C(=O)N[C@H](C)C(=O)N[C@H](CC(C)C)C(=O)N[C@H](CO)C(=O)N[C@H](CCCCN)C(N)=O [compound 26] (HELM PEPTIDE1{[ac].[dK].[dL].[dK].[dS].[dL].[dL].[dK].[dS].[dL].[dS].[dK].[dA].[dK].[dK].[dK].[dK].[dL].[dK].[dS].[dL].[dL].[dK].[dA].[dL].[dS].[dK].[am]}$$$$V2.0)	>1000
